Measurements from publication PMC3150338.
No constants are given. Whether binding was seen depends on the method and setting. Binding seen in cells or lysates may run through a third protein. Some results given as binding are weak or reduced against the parent protein; the word gives no strength.

Tests used:
[1] = target: core domain-deleted p53 (p53coreΔ), lacking amino acids 91-294 (human) (UniProt P04637); experiment: co-IP; yeast whole cell extracts (strains SY1000 and SY1004 grown in 1.8% raffinose/0.2% galactose); p53 precipitated with mAb DO-1, Rpb1 detected with anti-CTD antiserum
[2] = target: full-length p53 (p53+) expressed in yeast (human) (UniProt P04637); experiment: as above
[3] = target: Rpb1, the large subunit of RNA polymerase II (Pol II) (S. cerevisiae (endogenous in yeast whole cell extract)) (UniProt P04050); experiment: co-IP; reciprocal reaction: yeast whole cell extracts (strains SY1000 and SY1004 grown in 1.8% raffinose/0.2% galactose); Rpb1 precipitated with anti-Pol II (CTD) antiserum, p53 detected with DO-1

Substance	binding [1]	binding [2]	binding [3]
Rpb1, the large subunit of RNA polymerase II (Pol II) (from UniProt P04050 1-1733)	no binding	binds	
full-length p53 (p53+) expressed in yeast (from UniProt P04637 1-393)			binds
core domain-deleted p53 (p53coreΔ), lacking amino acids 91-294 (from UniProt P04637 1-393)			no binding
